According to US20080219974A1:
Results are given in words; binding and its absence hold for the method and conditions named. Some entries that bind do so weakly or less than the wild type. Each block holds one binder with its values, some of them ahead of it.

The chains behind the UniProt entries cited, without tags or fusion partners. Where a name states a change or a piece, a line headed by the entry shows the natural chain unless it says otherwise.
UniProt Q10589: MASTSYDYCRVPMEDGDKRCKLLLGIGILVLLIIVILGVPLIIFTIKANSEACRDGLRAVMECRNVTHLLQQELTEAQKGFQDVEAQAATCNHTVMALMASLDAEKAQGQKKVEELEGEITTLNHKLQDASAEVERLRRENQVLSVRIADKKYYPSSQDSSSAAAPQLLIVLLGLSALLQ

Tests used:
[1] = biological target: Human HM1.24 on RPMI 8226 multiple myeloma cells (human) (UniProt Q10589); assay: flow cytometry on HM1.24+ RPMI 8226 cells
[2] = biological target: His-tagged HM1.24 antigen, residues N49-A163 of the extracellular domain (human) (UniProt Q10589)

binding [1]: binds | binding [2]: binds
B1: HM1.24_H1L4 (antibody, human IgG1, kappa, V domains shown)
VH: QVQLVQSGAEVKKPGASVKVSCKASGYTFTPYWMQWVRQAPGQGLEWMGSIFPGDGDTRYSQSFQGQVTISADKSISTAYMELSRLRSDDTAVYYCARGLRRGGYYFDYWGQGTLVTVSS
VL: DIVMTQSPLSLPVTLGQPASISCKASQDVNTAVAWYLQKPGKSPKLLIYSASNRYTGVPDRITGSGSGTDFTLKISRVEAEDVGVYYCQQHYSTPFTFGSGTKLEIKR

binding [1]: binds | binding [2]: binds
B2: HM1.24_H2L4 (antibody, human IgG1, kappa, V domains shown)
VH: EVQLVESGGGLVKPGGSLRLSCAASGYTFTPYWMQWVRQAPGKGLEWMGSIFPGDGDTRYSQSFQGQVTISADKSISTAYMELSSLRSEDTAVYYCARGLRRGGYYFDYWGQGTLVTVSS
VL: B1 VL
